The other results are listed elsewhere or left out.
Legend:
Test in all cases: log2 fold change, soluble protein after heating vs DMSO (PISA); higher = thermal stabilisation; K562 lysate, 10 uM; active = over 0.2 and 3.5 SD of the protein, either way, in both replicates (recomputed)
[1] = compound: C#Cc1cccc(Nc2ncnc3cc(OCCOC)c(OCCOC)cc23)c1 [erlotinib]
Method in brief: (§1)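 To prepare the extract, K562 pellets were dounce-homogenised in PBS pH 7.4 with 1 mM MgCl2, giving crude material at 1 mg/mL protein. This was treated with 10 μM compound for 30 min, then heated in aliquots for 3 min over 48°C-58°C before pooling and addition of NP-40 to 0.5% at 4°C. Centrifugation at 21,000xg for 90 min left soluble protein in the supernatant, which TMTpro 16plex LC-MS/MS quantified with equalised channel sums. Results are log-two fold changes in thermal stability compared with solvent controls, from duplicates.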

Chains of the proteins cited; added tags and fusions are not shown. Lines headed by an entry give the natural chain unless they say otherwise; changes in a name come on top.
UniProt Q9H7E9: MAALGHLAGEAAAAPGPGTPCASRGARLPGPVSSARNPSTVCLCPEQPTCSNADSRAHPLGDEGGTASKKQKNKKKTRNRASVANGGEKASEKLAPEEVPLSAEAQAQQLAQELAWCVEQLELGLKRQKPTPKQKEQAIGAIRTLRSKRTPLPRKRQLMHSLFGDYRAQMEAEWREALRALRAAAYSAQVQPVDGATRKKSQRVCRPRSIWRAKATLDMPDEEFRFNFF
UniProt Q13555: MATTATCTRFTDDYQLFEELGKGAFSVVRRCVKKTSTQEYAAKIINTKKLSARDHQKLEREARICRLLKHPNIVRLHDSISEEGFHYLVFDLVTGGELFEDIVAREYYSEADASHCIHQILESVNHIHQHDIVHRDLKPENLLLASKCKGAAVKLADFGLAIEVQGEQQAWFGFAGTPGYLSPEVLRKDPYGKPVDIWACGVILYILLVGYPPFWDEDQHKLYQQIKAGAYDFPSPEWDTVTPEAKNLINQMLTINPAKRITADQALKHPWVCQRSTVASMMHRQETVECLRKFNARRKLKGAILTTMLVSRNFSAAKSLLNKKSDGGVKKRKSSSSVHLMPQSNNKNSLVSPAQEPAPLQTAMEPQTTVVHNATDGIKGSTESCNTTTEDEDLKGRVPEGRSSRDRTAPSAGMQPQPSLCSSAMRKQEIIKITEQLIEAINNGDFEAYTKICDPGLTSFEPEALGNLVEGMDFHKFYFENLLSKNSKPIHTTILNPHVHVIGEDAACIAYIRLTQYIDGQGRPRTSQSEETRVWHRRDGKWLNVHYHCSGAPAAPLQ
UniProt Q9HAS0: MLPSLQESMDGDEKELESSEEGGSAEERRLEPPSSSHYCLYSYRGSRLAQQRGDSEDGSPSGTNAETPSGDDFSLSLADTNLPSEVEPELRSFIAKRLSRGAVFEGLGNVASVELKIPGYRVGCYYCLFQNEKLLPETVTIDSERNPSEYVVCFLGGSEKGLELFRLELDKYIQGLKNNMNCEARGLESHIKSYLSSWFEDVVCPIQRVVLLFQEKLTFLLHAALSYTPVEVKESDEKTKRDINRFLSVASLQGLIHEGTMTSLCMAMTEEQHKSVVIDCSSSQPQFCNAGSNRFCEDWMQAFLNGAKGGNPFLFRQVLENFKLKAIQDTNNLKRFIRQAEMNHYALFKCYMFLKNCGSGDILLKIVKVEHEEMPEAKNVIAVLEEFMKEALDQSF
UniProt P17655: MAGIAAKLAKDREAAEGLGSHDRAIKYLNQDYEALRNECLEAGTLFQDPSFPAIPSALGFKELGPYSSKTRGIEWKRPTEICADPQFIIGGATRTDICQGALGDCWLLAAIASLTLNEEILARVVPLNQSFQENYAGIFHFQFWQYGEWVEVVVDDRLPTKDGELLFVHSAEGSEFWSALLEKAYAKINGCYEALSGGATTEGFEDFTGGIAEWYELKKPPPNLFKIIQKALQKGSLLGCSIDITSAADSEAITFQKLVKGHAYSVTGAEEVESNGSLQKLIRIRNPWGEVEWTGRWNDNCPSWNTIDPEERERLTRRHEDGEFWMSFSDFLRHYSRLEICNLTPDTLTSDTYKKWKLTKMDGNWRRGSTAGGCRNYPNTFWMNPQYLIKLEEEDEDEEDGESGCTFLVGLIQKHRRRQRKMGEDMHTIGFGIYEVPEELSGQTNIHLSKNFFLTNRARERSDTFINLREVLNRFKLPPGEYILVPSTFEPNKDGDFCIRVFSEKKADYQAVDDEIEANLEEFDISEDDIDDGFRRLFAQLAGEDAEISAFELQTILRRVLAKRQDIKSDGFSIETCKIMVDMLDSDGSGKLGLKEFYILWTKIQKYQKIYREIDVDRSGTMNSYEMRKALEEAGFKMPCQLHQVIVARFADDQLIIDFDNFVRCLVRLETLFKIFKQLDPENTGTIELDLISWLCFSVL
UniProt O43684, whole entry, looked up: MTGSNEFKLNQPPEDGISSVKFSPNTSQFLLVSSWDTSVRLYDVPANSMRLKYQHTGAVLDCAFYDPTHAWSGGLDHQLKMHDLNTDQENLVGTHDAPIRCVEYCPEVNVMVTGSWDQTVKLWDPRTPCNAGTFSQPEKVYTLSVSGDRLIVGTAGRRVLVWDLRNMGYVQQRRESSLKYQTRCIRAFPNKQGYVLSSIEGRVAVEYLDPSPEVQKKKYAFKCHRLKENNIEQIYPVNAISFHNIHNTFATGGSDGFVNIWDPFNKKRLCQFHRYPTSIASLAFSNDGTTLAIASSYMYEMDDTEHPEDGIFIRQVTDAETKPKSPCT
UniProt Q5SNV9: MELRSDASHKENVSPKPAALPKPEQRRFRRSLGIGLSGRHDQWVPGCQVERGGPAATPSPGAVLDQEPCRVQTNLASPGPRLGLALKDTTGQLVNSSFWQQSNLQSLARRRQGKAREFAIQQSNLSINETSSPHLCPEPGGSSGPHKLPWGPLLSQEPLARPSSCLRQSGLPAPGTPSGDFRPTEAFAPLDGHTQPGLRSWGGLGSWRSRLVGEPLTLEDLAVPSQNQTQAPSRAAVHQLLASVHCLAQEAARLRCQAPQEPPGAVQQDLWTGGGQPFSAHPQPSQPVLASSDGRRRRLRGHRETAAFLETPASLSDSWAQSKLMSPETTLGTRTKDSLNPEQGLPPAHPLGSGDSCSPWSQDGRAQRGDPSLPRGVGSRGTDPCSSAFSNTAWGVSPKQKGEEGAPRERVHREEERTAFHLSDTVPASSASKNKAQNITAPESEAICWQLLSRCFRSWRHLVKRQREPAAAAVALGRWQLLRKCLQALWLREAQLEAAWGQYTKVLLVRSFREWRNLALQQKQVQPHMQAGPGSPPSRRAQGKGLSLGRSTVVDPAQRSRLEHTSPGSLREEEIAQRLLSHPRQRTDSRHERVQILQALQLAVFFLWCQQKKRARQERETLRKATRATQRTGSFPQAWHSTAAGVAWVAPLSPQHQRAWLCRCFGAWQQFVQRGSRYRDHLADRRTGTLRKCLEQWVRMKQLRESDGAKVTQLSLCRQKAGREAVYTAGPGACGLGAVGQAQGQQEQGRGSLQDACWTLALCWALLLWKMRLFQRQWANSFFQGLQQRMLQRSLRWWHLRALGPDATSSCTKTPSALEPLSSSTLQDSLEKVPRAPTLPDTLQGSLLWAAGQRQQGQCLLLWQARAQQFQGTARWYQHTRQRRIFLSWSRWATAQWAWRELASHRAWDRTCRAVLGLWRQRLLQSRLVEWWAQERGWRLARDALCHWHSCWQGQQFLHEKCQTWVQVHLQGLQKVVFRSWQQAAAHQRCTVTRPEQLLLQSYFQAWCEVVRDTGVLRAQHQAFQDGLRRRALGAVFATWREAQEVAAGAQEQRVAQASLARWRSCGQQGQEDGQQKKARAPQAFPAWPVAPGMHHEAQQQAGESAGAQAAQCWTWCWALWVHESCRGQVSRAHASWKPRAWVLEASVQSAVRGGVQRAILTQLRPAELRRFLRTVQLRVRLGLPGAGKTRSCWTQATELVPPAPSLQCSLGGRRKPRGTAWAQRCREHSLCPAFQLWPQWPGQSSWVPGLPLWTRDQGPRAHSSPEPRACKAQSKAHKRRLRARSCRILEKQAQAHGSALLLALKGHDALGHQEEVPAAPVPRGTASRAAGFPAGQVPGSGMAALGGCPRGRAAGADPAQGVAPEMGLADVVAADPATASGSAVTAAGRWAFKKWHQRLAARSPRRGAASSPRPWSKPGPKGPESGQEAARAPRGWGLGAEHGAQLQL
UniProt Q9Y376: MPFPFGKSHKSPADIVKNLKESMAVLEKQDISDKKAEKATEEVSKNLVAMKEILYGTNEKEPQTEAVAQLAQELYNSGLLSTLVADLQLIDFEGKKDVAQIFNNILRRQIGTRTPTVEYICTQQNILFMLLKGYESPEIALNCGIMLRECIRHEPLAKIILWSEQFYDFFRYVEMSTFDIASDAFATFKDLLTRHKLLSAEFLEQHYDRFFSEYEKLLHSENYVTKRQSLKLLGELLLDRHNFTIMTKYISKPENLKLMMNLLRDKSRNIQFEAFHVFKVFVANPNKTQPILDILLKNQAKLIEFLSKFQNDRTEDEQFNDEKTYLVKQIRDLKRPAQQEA
UniProt Q96N11, whole entry, looked up: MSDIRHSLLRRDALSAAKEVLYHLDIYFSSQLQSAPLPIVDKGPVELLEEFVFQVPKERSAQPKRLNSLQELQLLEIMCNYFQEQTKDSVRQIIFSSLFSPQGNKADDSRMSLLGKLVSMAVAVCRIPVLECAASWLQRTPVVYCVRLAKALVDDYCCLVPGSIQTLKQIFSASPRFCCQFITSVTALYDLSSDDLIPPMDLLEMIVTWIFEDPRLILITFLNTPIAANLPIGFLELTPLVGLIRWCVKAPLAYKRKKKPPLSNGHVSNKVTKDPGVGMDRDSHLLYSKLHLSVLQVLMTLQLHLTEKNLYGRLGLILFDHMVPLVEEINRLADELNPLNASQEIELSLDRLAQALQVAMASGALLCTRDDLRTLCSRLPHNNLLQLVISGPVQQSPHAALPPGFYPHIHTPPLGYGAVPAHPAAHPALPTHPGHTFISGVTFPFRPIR
UniProt P41223: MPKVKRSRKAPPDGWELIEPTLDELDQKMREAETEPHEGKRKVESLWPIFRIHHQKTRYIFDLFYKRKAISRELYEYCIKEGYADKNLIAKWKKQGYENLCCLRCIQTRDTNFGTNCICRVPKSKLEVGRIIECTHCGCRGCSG
UniProt O43709: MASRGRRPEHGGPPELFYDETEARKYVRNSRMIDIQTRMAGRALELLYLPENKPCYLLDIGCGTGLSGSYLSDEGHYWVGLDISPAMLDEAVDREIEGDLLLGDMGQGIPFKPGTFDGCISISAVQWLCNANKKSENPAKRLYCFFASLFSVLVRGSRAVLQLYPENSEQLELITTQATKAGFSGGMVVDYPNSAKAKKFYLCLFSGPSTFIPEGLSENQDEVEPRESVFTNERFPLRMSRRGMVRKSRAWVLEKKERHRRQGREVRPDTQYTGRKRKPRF
UniProt Q14444, whole entry, looked up: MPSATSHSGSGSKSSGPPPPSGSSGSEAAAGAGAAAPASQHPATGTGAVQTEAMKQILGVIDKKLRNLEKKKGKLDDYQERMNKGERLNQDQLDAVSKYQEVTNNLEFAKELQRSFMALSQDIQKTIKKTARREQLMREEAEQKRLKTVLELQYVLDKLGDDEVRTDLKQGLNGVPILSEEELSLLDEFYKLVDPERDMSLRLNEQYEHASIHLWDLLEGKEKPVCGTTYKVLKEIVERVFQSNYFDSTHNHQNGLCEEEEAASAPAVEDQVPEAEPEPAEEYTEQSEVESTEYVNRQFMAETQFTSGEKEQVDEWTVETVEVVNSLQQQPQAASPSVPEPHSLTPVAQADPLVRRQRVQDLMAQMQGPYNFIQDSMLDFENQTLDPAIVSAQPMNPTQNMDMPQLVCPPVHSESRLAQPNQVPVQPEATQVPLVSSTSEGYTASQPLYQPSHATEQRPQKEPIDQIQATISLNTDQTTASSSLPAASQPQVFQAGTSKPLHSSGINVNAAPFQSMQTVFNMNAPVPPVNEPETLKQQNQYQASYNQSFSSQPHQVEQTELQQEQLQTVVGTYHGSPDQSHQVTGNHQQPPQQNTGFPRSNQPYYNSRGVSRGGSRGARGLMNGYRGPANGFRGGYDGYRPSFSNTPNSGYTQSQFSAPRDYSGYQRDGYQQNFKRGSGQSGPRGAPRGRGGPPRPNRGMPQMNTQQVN
UniProt Q96GV9: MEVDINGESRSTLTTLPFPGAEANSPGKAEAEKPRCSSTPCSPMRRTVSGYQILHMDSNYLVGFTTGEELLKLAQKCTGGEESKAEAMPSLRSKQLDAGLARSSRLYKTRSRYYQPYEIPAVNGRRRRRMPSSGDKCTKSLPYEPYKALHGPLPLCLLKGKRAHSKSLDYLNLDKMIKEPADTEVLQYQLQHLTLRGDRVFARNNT
UniProt Q96NL8: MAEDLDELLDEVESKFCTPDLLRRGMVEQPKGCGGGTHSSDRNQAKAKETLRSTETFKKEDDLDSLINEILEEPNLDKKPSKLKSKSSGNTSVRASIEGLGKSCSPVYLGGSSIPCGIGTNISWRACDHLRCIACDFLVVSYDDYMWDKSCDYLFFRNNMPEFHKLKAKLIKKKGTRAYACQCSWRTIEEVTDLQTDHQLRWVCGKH

[2] = compound: C/C(=N\NC(=O)C1=CC(=CC=C1)S(=O)(=O)N2CCOCC2)/C3=C(C=CC(=C3)Cl)O
Method in brief: as §1

[3] = compound: C1=CC(=CC=C1C2=NC3=C(N2)C=C(C=C3)C(=O)N)OC4=CC=C(C=C4)Cl
Method in brief: as §1

[4] = compound: C1=CC2=C(C=CC(=C2)/C=C\3/C(=O)NC(=NCC4=CC=CS4)S3)N=C1
Method in brief: as §1

[5] = compound: C1=CC2=NC=CN=C2C=C1/C=C/3\C(=O)NC(=O)S3
Method in brief: as §1

[6] = compound: C1=CC=C(C=C1)C2=NC(=C(N2)C3=CC=NC=C3)C4=CC(=C(C=C4)Cl)O
Method in brief: as §1

[7] = compound: C1=CC=C2C(=C1)C3=NNC4=CC=CC(=C43)C2=O
Method in brief: as §1

[8] = compound: C1CCN(C1)C(=O)NC2=CC=CC(=C2)NC3=NC=C(C(=N3)NCCC4=CN=CN4)Br
Method in brief: as §1

[9] = compound: C1CN(CCC1(CC2=CC=C(C=C2)Cl)N)C3=NC=NC4=C3C=CN4
Method in brief: as §1

[10] = compound: C1COCCN1CCN2C3=CC=CC=C3N=C2NC(=O)C4=CC(=CC=C4)[N+](=O)[O-] [IRAK-1-4 Inhibitor I]
Method in brief: as §1

[11] = compound: C=CC(=O)N1CCC[C@@H](n2nc(-c3ccc(Oc4ccccc4)cc3)c3c(N)ncnc32)C1 [ibrutinib]
Method in brief: as §1

[12] = compound: CC(=O)c1cnc2ccc(-c3cc(Cl)c(O)c(Cl)c3)nc2c1N[C@H]1CC[C@H](CN(C)C)CC1
Method in brief: as §1

[13] = compound: CC(C)(C)Cn1c(N)nc2ccc(-c3[nH]c(C(C)(C)C)nc3-c3ccc(F)cc3)nc21 [ralimetinib]
Method in brief: as §1

[14] = compound: CC(C)(O)CC(=O)NCCn1ccc2ncnc(Nc3ccc(Oc4cccc(C(F)(F)F)c4)c(Cl)c3)c21
Method in brief: as §1

[15] = compound: CC(C)C1=C2N=C(C=C(N2N=C1)NCC3=CC=CC=C3)NCCCCCCN
Method in brief: as §1

[16] = compound: CC1=C(C(CC(=O)N1)C2=CC=C(C=C2)C(F)(F)F)C(=O)NC3=C(C=C4C(=C3)C=NN4)F
Method in brief: as §1

[17] = compound: CC1=C(C2=C(C=C1)C(=O)C3=CC=CC=C3N2CCCN)C
Method in brief: as §1

[18] = compound: CC1=C(C=C(C=C1)NC(=O)C2=CC(=CC=C2)C(C)(C)C#N)NC3=CC4=C(C=C3)N=CN(C4=O)C
Method in brief: as §1

[19] = compound: CC1=C(C=C(C=C1)NC(=O)C2=CC(=CC=C2)N(C)C)NC(=O)C3=CC=C(C=C3)O
Method in brief: as §1

[20] = compound: CC1=CC=C(C=C1)SC2=C3C=C(SC3=CN=C2)C(=O)N
Method in brief: as §1

Measured: log2 fold change

C8orf33 isoform 2 (UniProt Q9H7E9)
inactive: [1] -0.022 | [2] -0.112 | [3] -0.031 | [4] 0.041 | [5] -0.049 | [6] -0.033 | [7] 0.026 | [8] 0.016 | [9] -0.019 | [10] 0.017 | [11] 0.036 | [12] 0 | [13] 0.064 | [14] 0.022 | [15] 0.044 | [16] -0.038 | [17] 0.007 | [18] -0.037 | [19] -0.016 | [20] 0.005

C4A (UniProt P0C0L4)
inactive: [1] -0.017 | [2] 0.024 | [3] 0.009 | [4] -0.094 | [5] -0.042 | [6] 0.034 | [7] 0.023 | [8] -0.051 | [9] 0.006 | [10] 0.044 | [11] -0.024 | [12] 0.025 | [13] 0.041 | [14] -0.037 | [15] 0.017 | [17] -0.058 | [18] 0.065 | [19] 0.029 | [20] -0.071

C19orf53 (UniProt Q9UNZ5)
inactive: [1] -0.059 | [2] -0.072 | [3] -0.037 | [4] -0.037 | [5] -0.087 | [6] -0.034 | [7] 0.056 | [8] 0.022 | [9] 0.017 | [10] -0.015 | [11] 0.011 | [12] -0.013 | [13] 0.024 | [14] -0.044 | [15] -0.036 | [16] 0.018 | [17] -0.041 | [18] -0.011 | [19] 0.025 | [20] 0.029

CAMK2G isoform 8 (UniProt Q13555)
inactive: [1] 0.009 | [2] -0.193 | [3] 0.027 | [4] -0.094 | [5] 0.018 | [6] -0.027 | [7] 0.116 | [8] 0.026 | [9] 0.044 | [10] 0.036 | [11] 0.036 | [12] 0.173 | [13] -0.022 | [14] 0.009 | [15] -0.001 | [16] -0.019 | [17] 0.073 | [18] -0.03 | [19] 0.05 | [20] -0.027

C17orf75 (UniProt Q9HAS0)
inactive: [1] -0.006 | [2] -0.028 | [3] 0.017 | [4] 0.028 | [5] 0.104 | [6] 0.001 | [7] 0.017 | [8] 0.002 | [9] -0.011 | [10] -0.016 | [11] 0.019 | [12] -0.018 | [13] 0.01 | [14] 0.002 | [15] 0.009 | [16] -0.013 | [17] 0.003 | [18] -0.065 | [19] 0.046 | [20] 0.02

C20orf27 isoform 2 (UniProt Q9GZN8)
inactive: [1] 0.095 | [2] -0.02 | [3] -0.091 | [4] -0.022 | [5] 0.013 | [6] -0.031 | [7] 0.075 | [8] 0.042 | [9] 0.019 | [10] 0.052 | [11] 0.106 | [12] 0.039 | [13] -0.066 | [14] -0.037 | [15] 0.036 | [16] 0.041 | [17] -0.007 | [18] 0.015 | [19] 0.073 | [20] 0.003

CAPN2 (UniProt P17655)
inactive: [1] -0.022 | [2] -0.027 | [3] 0.002 | [4] 0.019 | [5] 0.001 | [6] -0.005 | [7] 0 | [8] -0.031 | [9] -0.007 | [10] 0.012 | [11] -0.004 | [12] 0.005 | [13] 0.011 | [14] -0.006 | [15] 0.006 | [16] 0.005 | [17] 0.011 | [18] 0.003 | [19] 0.003 | [20] 0.002

BUB3 (UniProt O43684)
inactive: [1] -0.02 | [2] 0 | [3] 0.017 | [4] -0.001 | [5] -0.003 | [6] -0.017 | [7] 0.004 | [8] -0.022 | [9] 0.022 | [10] 0.013 | [11] 0.001 | [12] -0.006 | [13] 0.012 | [14] 0.015 | [15] 0.008 | [16] -0.027 | [17] -0.017 | [18] -0.006 | [19] -0.023 | [20] 0.022

C1orf167 isoform 2 (UniProt Q5SNV9)
inactive: [1] 0.084 | [2] 0.131 | [3] 0.003 | [4] 0.023 | [5] -0.122 | [6] 0.011 | [7] 0.035 | [10] 0.015 | [11] -0.022 | [12] 0.001 | [13] -0.012 | [14] -0.076 | [15] 0.144 | [16] -0.107 | [17] 0.08 | [18] 0.034 | [19] 0.158 | [20] -0.045

CAB39 (UniProt Q9Y376)
inactive: [1] -0.015 | [2] 0.003 | [3] -0.013 | [4] -0.01 | [5] 0.006 | [6] 0 | [7] 0.064 | [8] 0.017 | [9] 0.015 | [10] -0.016 | [11] -0.017 | [12] 0.014 | [13] -0.003 | [14] 0.009 | [15] -0.002 | [16] -0.039 | [17] 0.013 | [18] -0.013 | [19] -0.02 | [20] -0.013

C7orf26 (UniProt Q96N11)
inactive: [1] -0.068 | [2] -0.016 | [3] 0.063 | [4] -0.053 | [5] -0.203 | [6] -0.037 | [7] -0.076 | [8] 0.026 | [9] 0.118 | [10] -0.028 | [11] 0.091 | [12] 0.024 | [13] 0.024 | [14] 0.001 | [15] 0.01 | [16] 0.184 | [17] -0.002 | [18] 0.006 | [19] 0.027 | [20] 0.025

Taken from above (2 entries):
C8orf33 isoform 2 (UniProt Q9H7E9)
inactive: [1] -0.022 | [2] -0.112 | [3] -0.031 | [4] 0.041 | [5] -0.049 | [6] -0.033 | [7] 0.026 | [8] 0.016 | [9] -0.019 | [10] 0.017 | [11] 0.036 | [12] 0 | [13] 0.064 | [14] 0.022 | [15] 0.044 | [16] -0.038 | [17] 0.007 | [18] -0.037 | [19] -0.016 | [20] 0.005

C4A (UniProt P0C0L4)
inactive: [1] -0.017 | [2] 0.024 | [3] 0.009 | [4] -0.094 | [5] -0.042 | [6] 0.034 | [7] 0.023 | [8] -0.051 | [9] 0.006 | [10] 0.044 | [11] -0.024 | [12] 0.025 | [13] 0.041 | [14] -0.037 | [15] 0.017 | [17] -0.058 | [18] 0.065 | [19] 0.029 | [20] -0.071

(continued)

BUD31 (UniProt P41223)
inactive: [1] -0.03 | [2] -0.032 | [3] 0.006 | [4] 0.017 | [5] -0.032 | [6] 0.007 | [7] 0.063 | [8] 0.023 | [9] 0.01 | [10] -0.014 | [11] 0.06 | [12] -0.008 | [13] 0.03 | [14] -0.012 | [15] -0.004 | [16] 0.006 | [17] 0 | [18] 0.1 | [19] 0.004 | [20] 0.035

BUD23 isoform 3 (UniProt O43709)
inactive: [1] 0.074 | [2] -0.046 | [3] 0.009 | [4] -0.008 | [5] -0.097 | [6] -0.02 | [7] -0.01 | [8] -0.026 | [9] -0.033 | [10] -0.017 | [11] -0.017 | [12] -0.007 | [13] 0.089 | [14] -0.002 | [15] -0.064 | [16] -0.004 | [17] 0.119 | [18] -0.056 | [19] -0.023 | [20] -0.001

CAPRIN1 (UniProt Q14444)
inactive: [1] -0.011 | [2] 0.03 | [3] 0.003 | [4] -0.015 | [5] 0 | [6] 0.024 | [7] 0.018 | [8] -0.015 | [9] -0.025 | [10] 0.019 | [11] 0.025 | [12] -0.023 | [13] 0.013 | [14] 0.022 | [15] -0.004 | [16] -0.044 | [17] -0.001 | [18] -0.018 | [19] -0.033 | [20] -0.023

C5orf30 (UniProt Q96GV9)
inactive: [1] 0.037 | [2] -0.089 | [3] -0.035 | [4] -0.009 | [5] -0.118 | [6] 0.095 | [7] 0.003 | [8] 0 | [9] -0.003 | [10] -0.029 | [11] -0.003 | [13] -0.041 | [14] -0.036 | [15] -0.128 | [16] -0.14 | [17] 0.007 | [18] -0.045 | [19] -0.061

C8orf37 (UniProt Q96NL8)
inactive: [1] -0.006 | [2] -0.174 | [3] 0.029 | [4] -0.064 | [5] 0.005 | [6] 0.001 | [7] 0.037 | [8] -0.067 | [9] 0.007 | [10] -0.047 | [11] 0.214 | [12] -0.037 | [13] -0.004 | [14] 0.031 | [15] -0.038 | [17] -0.006 | [18] 0.089 | [19] 0.031 | [20] -0.089

From the supplement of paper PMC10849652
